This is an account of results in PubChem BioAssay AID2685 (National Center for Advancing Translational Sciences (NCATS), 2010).

Some of the results follow. These are further read-outs of the screen, such as a control signal, another cell line or another target. No call is given for them. Compounds called inactive in the main read-out are mostly missing here. The note in brackets gives the kind of curve behind each potency; many fits are weak. Where a SMILES comes first, the peptide text is derived from it. [ ]: non-standard residue; d: D form. The star is where a group is joined. Tos = Cc1ccc(S(=O)(=O)*)cc1

The nature of the assay: qHTS Assay for Lipid Storage Modulators in Drosophila S3 Cells.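 As to cell number change: cells counted by Cell Tracker Red CMTPX staining in the red channel.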 The conditions noted are these: BODIPY lipid droplet fluorescence, 18-24 h; for cell number change: measured here: cell count max response, cells fed with added oleic acid. A digest of the protocol:
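Drosophila S3 cells got compounds at several concentrations plus oleic acid (400 uM solution). Laser-scanning cytometry with 488 nm excitation read lipid droplets at 500-530 nm and cells at 575-640 nm. Percent activity was relative to 20 uM Triacsin C.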
A general note: Quantitative high-throughput screening tests each substance at several concentrations.

The mark [1] stands for this setting: measured here: lipid fluorescence (Fed channel) AC50, cells fed with added oleic acid.
The mark [2] stands for this setting: measured here: cell number channel AC50, cells fed with added oleic acid.

As to `O=C(N/N=C/c1ccccc1O)NC12CC3CC(CC(C3)C1)C2`, the cell number change was -18.1%.

For orientation: AC50 means the concentration at which the activity in the assay is half-maximal. As for `CC1CCC2C(=O)N(c3ccc(S(=O)(=O)c4ccccc4)cc3)C(=O)C2C1` (stereo not drawn), the cell number change amounted to 11.6%. Further, under setting [1], the AC50 was 0.116 µM [rising, full curve, poor fit].

Turning to `CCOC(=O)c1sc(NC(=O)CCN2CCN(CC)CC2)c(C(=O)OCC)c1C`, the cell number change was found to be 3.42%. For the same compound, the AC50 under setting [1] is 3.26 µM [rising, single point].

With `Cc1ccc(S(=O)(=O)N[C@@H](Cc2ccccc2)C(=O)N2CCC[C@@H]2C(=O)O)cc1` (Tos-Phe-[dP]-OH), the cell number change was -10%. For the same compound, the half-maximal activity concentration (AC50) under setting [1] is 0.291 µM [falling, full curve].

With `COc1cccc(OCc2cc(C(=O)N3CCC(c4ccncc4)CC3)no2)c1`, under setting [1], the half-maximal activity concentration (AC50) is 3.26 µM [falling, partial curve].

Consider `COC(=O)/C=C/C(=O)N1CCN(c2ccccc2C)CC1`, for which the cell number change was -4%.

For `Nn1cnc2scc(-c3ccc(Cl)cc3)c2c1=O`, the cell number change is -1.1%.

Regarding `CC(C)(CNC(=O)c1cccc(S(=O)(=O)NCc2ccccc2)c1)N1CCOCC1`, the AC50 under setting [1] is 23.1 µM [rising, single point].

Take `COC(=O)C1CCN(c2c([N+](=O)[O-])cc(C(F)(F)F)cc2[N+](=O)[O-])CC1`: the cell number change came to 1.95%. In addition, the AC50 under setting [2] is 6.51 µM [rising, single point].

Regarding `CC1Cc2ccccc2N1C(=O)CNc1cccc(S(=O)(=O)N2CCCC2)c1` (stereo not drawn), the cell number change is 7.31%. Moreover, the concentration at half-maximal activity (AC50) under setting [1] is 6.51 µM [rising, single point].

Turning to `O=C(Nc1ccccc1N1CCN(C(=O)c2ccccc2)CC1)c1cc2ccccc2o1`, the AC50 under setting [2] was 1.64 µM [rising, partial curve] and the AC50 under setting [1] was 1.46 µM [rising, partial curve].

As for `O=C(CN1CCN(S(=O)(=O)c2ccc(Cl)cc2)CC1)c1ccc(O)c(O)c1`, the cell number change is -41.3%. For the same compound, the AC50 under setting [2] is 14.6 µM [falling, single point]. Besides, the AC50 under setting [1] is 16.4 µM [falling, single point].

`CCCCC(CC)COC(=O)C(C#N)=C(c1ccccc1)c1ccccc1` (stereo not drawn): the cell number change was -37.6%. Also, under setting [2], the concentration at half-maximal activity (AC50) was 25.9 µM [falling, single point].

In the case of `CCCn1cc(SCC(N)=O)c2ccccc21`, the cell number change was determined as 4.53%. The AC50 under setting [1] was 29.1 µM [falling, single point].

`O=C(CNC(=O)c1ccccc1F)OCc1nc2ccc(Cl)cc2n1CCO`: the cell number change is -28.3%. Besides, under setting [1], the half-maximal activity concentration (AC50) is 14.6 µM [rising, partial curve, poor fit].

With `O=C(CCc1ccccc1)Nc1nnc(-c2cccs2)o1`, the cell number change amounted to 7.08%.

In the case of `O=C(CCN1C(=O)C2CC=CCC2C1=O)Nc1cc(C(F)(F)F)ccc1N1CCCC1` (stereo not drawn), the cell number change is -5.12%. Also, the AC50 under setting [1] is 20.6 µM [rising, partial curve].

Regarding `C=CCn1c(SCC(=O)c2ccccc2)nnc1-c1ccc2c(c1)OCO2`, the AC50 under setting [1] was 0.58 µM [rising, single point].

Take `CC(C)c1nnc(NC(=O)C2CCN(c3cnccn3)CC2)s1`: the cell number change is -25.3%. Further, the concentration at half-maximal activity (AC50) under setting [1] is 29.1 µM [falling, single point].

For `CC1CCC(NC(=O)C2CCN(C(=O)NC3CCCCC3)CC2)CC1` (stereo not drawn), the cell number change was determined as 6.81%.

As for `Cc1nn(-c2cc(N3CCCCC3)ccc2N)c(=O)c2ccccc12`, the cell number change turned out to be 1.68%. Besides, the AC50 under setting [2] is 6.51 µM [falling, partial curve, poor fit]. Under setting [1], the half-maximal activity concentration (AC50) is 5.8 µM [falling, partial curve, poor fit].

Take `CCOC(=O)c1cc2c(OC)ccc(OC)c2n1CC(=O)c1ccccc1`: the cell number change is -4.93%. Also, under setting [1], the AC50 was 25.9 µM [rising, single point].

Turning to `CCCCn1nnc(N(C(=O)c2cccs2)C(=O)c2cccs2)n1`, the cell number change was -7.7%.

As for `CC(C)=CCN1CCN(Cc2cccn2-c2ccccn2)CC1CCO` (stereo not drawn), the cell number change worked out at 30%. Besides, the AC50 under setting [2] was 2.31 µM [rising, full curve].

As for `O=C(NCc1cccnc1)c1nnc(Cc2ccc(F)cc2)o1`, the cell number change is 17.4%. Also, the AC50 under setting [1] was 20.6 µM [rising, partial curve].

For `COc1ccc(C(=O)NCCCCCCNC(=O)c2ccc(OC)cc2)cc1`, the cell number change was 6.94%. The AC50 under setting [1] was 6.51 µM [falling, single point].

In the case of `Nc1nn(-c2ccccc2)c(N)c1N=Nc1ccccc1F`, the AC50 under setting [1] is 1.64 µM [rising, partial curve].

In the case of `COc1ccc(N2C(=O)CC(N3CCN(S(=O)(=O)c4ccc(Cl)cc4)CC3)C2=O)cc1` (stereo not drawn), the cell number change is -16%. Further, under setting [1], the AC50 is 16.4 µM [rising, single point].

On to `CCC(Oc1ccccc1)C(=O)Nc1nnc(S(=O)(=O)Nc2ccccc2)s1` (stereo not drawn), for which the cell number change came to 12.9%. Besides, the AC50 under setting [1] was 25.9 µM [rising, single point].

For `NS(=O)(=O)c1ccc(NC(=O)COC(=O)CCc2ccc(S(=O)(=O)N3CCOCC3)cc2)cc1`, the cell number change is 27.7%. Also, the AC50 under setting [2] was 4.11 µM [falling, single point]. Moreover, under setting [1], the concentration at half-maximal activity (AC50) is 3.66 µM [falling, single point].

As for `CCOCc1c(C(=O)NCc2ccccc2CN2CCCC2)oc2ccccc12`, the cell number change turned out to be 17.2%.

Take `COc1ccc(NC(=O)c2ccc3c(c2)C(=O)N(CC2CCCO2)C3=O)cc1` (stereo not drawn): the cell number change was determined as 16.4%. Besides, the concentration at half-maximal activity (AC50) under setting [1] is 6.51 µM [rising, single point].

Consider `COc1cc(NC(=O)c2cccs2)c(C(=O)OCC(=O)NC(=O)NCc2ccccc2)cc1OC`, for which the half-maximal activity concentration (AC50) reads like this: under setting [2], 0.82 µM [rising, full curve]; under setting [1], 0.82 µM [rising, full curve].

In the case of `COc1ccccc1N1CCN(C(CNC(=O)C2CCCCC2)c2cccnc2)CC1` (stereo not drawn), the half-maximal activity concentration (AC50) by setting is: under setting [2], 1.3 µM [rising, partial curve]; under setting [1], 1.84 µM [rising, partial curve].

Regarding `CC(C)c1[nH]nc2c1C(Cc1ccccc1)C(C#N)=C(N)O2` (stereo not drawn), the cell number change is -3.28%. Moreover, the AC50 under setting [1] is 6.51 µM [rising, single point].

Regarding `O=C(Nc1cccc([N+](=O)[O-])c1)C12CC3CC(C1)CC(n1cnc([N+](=O)[O-])n1)(C3)C2`, the cell number change amounted to 5.05%.

As to `Clc1ccc2nc(-c3ccccc3)nc(C(Cl)Cl)c2c1`, the cell number change is -16.7%. In addition, under setting [2], the AC50 was 1.64 µM [falling, single point]. For the same compound, under setting [1], the half-maximal activity concentration (AC50) is 1.03 µM [falling, partial curve, poor fit].

Regarding `COc1ccccc1S(=O)(=O)Nc1ccc(S(=O)(=O)Nc2nccs2)cc1`, the cell number change was -12.1%. For the same compound, the AC50 under setting [1] is 4.11 µM [rising, single point].

With `CCOc1ccccc1N(CC(=O)Nc1ccc(S(=O)(=O)N2CCOCC2)cc1)S(C)(=O)=O`, the cell number change was -5.13%.

As for `Cc1cc(C)c(C#N)c(Nc2cccc(C)c2C)n1`, the cell number change was -12.9%. The AC50 under setting [1] is 0.517 µM [falling, full curve].

For `COc1ccc(Cc2nc3ccc(C(=O)NC(C)Cc4ncccc4C)cc3o2)cc1OC` (stereo not drawn), the cell number change is -52.5%. For the same compound, the AC50 under setting [2] is 6.51 µM [falling, full curve]. Moreover, the concentration at half-maximal activity (AC50) under setting [1] is 4.11 µM [falling, full curve, poor fit].

Take `CCCCc1c(O)cc(C)[nH]c1=O`: the cell number change is -37.1%. The half-maximal activity concentration (AC50) under setting [2] is 5.8 µM [falling, full curve]. The AC50 under setting [1] is 20.6 µM [falling, single point].

As to `O=C(CN(C(=O)c1csnn1)c1ccc(Br)cc1)NC1CCCC1`, the cell number change was found to be 21.2%. Also, under setting [2], the concentration at half-maximal activity (AC50) is 0.103 µM [rising, full curve, poor fit].

Take `COc1cc(C(Nc2ccc(S(=O)(=O)NCC3CCCO3)cc2)C(=O)NC(C)(C)C)cc(OC)c1OC` (stereo not drawn): the cell number change is -20.1%. Besides, the AC50 under setting [1] was 23.1 µM [falling, single point].

`Nc1nnnn1/N=C/c1ccccc1OCc1ccccc1`: the AC50 under setting [1] is 1.16 µM [rising, full curve].

Consider `NC(=O)c1ccc(C(=O)c2ccc([N+](=O)[O-])cc2)cc1`, for which the cell number change was -23.5%. For the same compound, under setting [1], the AC50 was 6.51 µM [rising, partial curve].

For the compound `COc1ccc(-c2csc(NCc3ccco3)n2)cc1C`, the cell number change came to 9.46%. Besides, under setting [1], the AC50 was 0.651 µM [rising, single point].

Turning to `O=C1/C(=C/c2cccnc2)Sc2ccccc21`, the cell number change is -20.6%. For the same compound, the AC50 under setting [1] is 23.1 µM [falling, single point].

On to `CCNC(=O)NC(=O)COC(=O)CNC(=O)COc1ccccc1`, for which the cell number change was -10.5%. Further, the AC50 under setting [1] was 1.16 µM [falling, full curve, poor fit].

Consider `O=C(Nc1nnc(-c2ccco2)s1)C1CC1`, for which the cell number change is -17.3%.

As to `CC1CCC2(CC1)NC(=O)N(CC(=O)N(Cc1ccccc1)C(C)(C)C)C2=O` (stereo not drawn), the cell number change was -17.8%. Also, the AC50 under setting [1] was 6.51 µM [rising, partial curve, poor fit].

For `COc1ccc(C(=O)NCC2CCCCC2)cc1S(=O)(=O)N1CCCC1`, the cell number change was determined as 13.1%. Besides, the AC50 under setting [1] was 29.1 µM [falling, single point].

In the case of `CC(=O)Nc1cccc(NC(=O)CSc2nnc(Cc3cccn3C)n2-c2ccc(C)cc2)c1`, the cell number change is -20.5%. The AC50 under setting [1] was 0.0517 µM [falling, full curve].

Consider `CCOc1c(Cl)cc(/C=N/O)cc1OC`, for which the cell number change is -2.88%. For the same compound, the AC50 under setting [1] was 6.51 µM [falling, single point].

In the case of `O=C(CN1C(=O)c2ccc([N+](=O)[O-])cc2C1=O)NC1CCCCCC1`, the cell number change is -75%. For the same compound, under setting [2], the concentration at half-maximal activity (AC50) is 4.11 µM [falling, full curve].

Consider `CN1/C(=C\C=C2/C(=O)Oc3ccccc3C2=O)C(C)(C)c2ccccc21`, for which the cell number change is -99.8%. In addition, under setting [2], the AC50 is 5.17 µM [falling, full curve]. Further, under setting [1], the AC50 is 2.31 µM [falling, full curve].

For the compound `Cc1ccc(NC(=O)N2CCCC2C(=O)NCCC2=CCCCC2)cc1` (stereo not drawn), the cell number change is 0.068%. Under setting [1], the concentration at half-maximal activity (AC50) was 13 µM [falling, partial curve, poor fit].

Turning to `Cc1cccc(NS(=O)(=O)c2ccc(C(=O)N3CCN(c4ccccc4O)CC3)cc2)c1C`, the cell number change is -25.7%. The AC50 under setting [1] was 29.1 µM [falling, single point].

As for `CCOC(=O)c1c(CC(C)C)csc1NC(=O)COC(=O)C1=NNC(=O)CC1`, the cell number change worked out at 8%.

On to `O=C(COC(=O)c1cc(Cl)ccc1O)NCCNC(=O)COC(=O)c1cc(Cl)ccc1O`, for which the cell number change was determined as 18.5%.

Regarding `CCOc1ccc(NC(=O)NCC2CCN(Cc3ccc(F)cc3)CC2)cc1`, the cell number change is -26.2%.

With `O=C(OCc1ccc([N+](=O)[O-])cc1)C1CCN(S(=O)(=O)c2ccccc2)CC1`, the cell number change stood at 9.39%. Also, the half-maximal activity concentration (AC50) under setting [1] was 3.26 µM [rising, single point].
